# Experimental data taken from the supplement of paper PMC12889115.
# This is one part of the list. Values are raw readings; no control value is given beside them.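 First-pass screen: polymyxin B was added at a level that permeabilizes the Salmonella outer membrane while sparing the inner membrane. DMSO wells, with and without polymyxin B, defined maximum growth. Because plates differed from one another, each plate's data were ranked separately and the compounds with the lowest OD600 were carried forward as hits.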
# System: Salmonella enterica serovar Typhimurium SL1344
# Assay: bacterial growth OD600 after 18 h with compound and polymyxin B; higher = more bacterial growth (less inhibition)
# Settings: 50 µM, Mueller-Hinton broth
SMILES,bacterial growth OD600 (polymyxin B 0.75 µg/mL),bacterial growth OD600 (polymyxin B 1 µg/mL)
O=C(NCc1cccnc1Oc1cccc(C(F)(F)F)c1)c1cn[nH]c1,0.056,–
CCc1ccc(CN(C)C(=O)c2cn(CC3COc4ccccc4O3)nn2)cc1 (configuration not stated),–,0.009
O=C(CCN1CCCO1)N1CCCC(CCc2ccc(F)c(F)c2)C1 (configuration not stated),0.684,–
CCC(CC)C(=O)NCC1Cc2cccc(-c3ncccc3C)c2O1 (configuration not stated),0.819,–
CCOc1ccc(-c2nc(CN(C)C(C)c3cccc(OC)c3)c(C)o2)cc1 (configuration not stated),–,0.704
CCOC(=O)CC1CCCCN1Cc1cn(C)nc1-c1ccc2c(c1)OCCO2 (configuration not stated),–,0.803
COc1ccc(CCC2CCCN(C3CCN(C(C)=O)CC3)C2)cc1 (configuration not stated),0.931,–
O=C(Cc1ccccc1)Nc1ccnn1C1CCN(C2CCCCC2)CC1,–,0.833
CC(=O)c1cccc(OCc2cc(C(=O)N(C)Cc3cccnc3)n[nH]2)c1,–,0.929
Cc1cc(C(=O)N2CCc3c([nH]c4ccccc34)C2c2ccc(F)cc2)no1 (configuration not stated),–,0.003
CCN1CC(CN(C)c2nc3nonc3nc2NC2CCCC2)CC1=O (configuration not stated),–,0.88
COCCNC(=O)c1ccc(OC)cc1OC1CCN(CC2CCCC2)CC1,–,0.905
O=C(CCC1CCCC1)N1CCC(C2CCN(c3ncccn3)CC2)C1 (configuration not stated),0.274,–
CC1(C(=O)N2CCCC(N3CCN(Cc4ccc5c(c4)OCO5)CC3)C2)CC1 (configuration not stated),–,1.2
COc1cccc(CNC(=O)CCC2CCCN(C(=O)c3ccc4ncccc4c3)C2)c1 (configuration not stated),–,1.16
CCOC(=O)N1CCN(C(=O)CC2(c3ccc(-c4ccccc4)cc3)CC(=O)N(C)C2=O)CC1 (configuration not stated),0.996,–

# Reformatted as tab-separated lines: 2 of the compounds above
SMILES	bacterial growth OD600 (polymyxin B 0.75 µg/mL)	bacterial growth OD600 (polymyxin B 1 µg/mL)
CCC(CC)C(=O)NCC1Cc2cccc(-c3ncccc3C)c2O1 (configuration not stated)	0.819	–
CCOc1ccc(-c2nc(CN(C)C(C)c3cccc(OC)c3)c(C)o2)cc1 (configuration not stated)	–	0.704

# (continued)

SMILES,bacterial growth OD600 (polymyxin B 0.75 µg/mL),bacterial growth OD600 (polymyxin B 1 µg/mL)
CCc1ccc(CN2CCC(O)(Cc3cc(-c4cccc(OC)c4)no3)CC2)o1,–,0.976
O=C(NCCc1ccccn1)c1csc2nc(-c3cccc(F)c3)cn12,0.925,–
CC(Cn1cccn1)Nc1ccc(-c2nc(-c3ccccc3F)no2)cn1 (configuration not stated),–,0.723
CC1=C(C(=O)N2CCCCC2C(=O)Nc2cccc(-c3nnc(C)s3)c2)OCCO1 (configuration not stated),0.863,–
O=C(c1ccc(OC2CCN(C(=O)C3CC3)CC2)cc1)N(CCO)Cc1cccs1,–,0.856
CSCCC(=O)NC1CC(=O)N(Cc2cccc(F)c2)C1 (configuration not stated),–,0.771
CCS(=O)(=O)Nc1cc(C(=O)N(C)Cc2nonc2C)c2c(c1)nc(-c1ccccc1)n2C,0.842,–
CCOC(=O)N1CCN(C(=O)c2ccc(N3CCC(NCC4COCCO4)CC3)cc2)CC1 (configuration not stated),0.719,–
COCC(=O)Nc1cc(C(=O)N2CCCC(COC)C2)c2c(c1)ncn2Cc1ccc(F)cc1 (configuration not stated),0.804,–
Cc1nc(N2CCC(C(=O)NC(Cn3ccnc3)c3ccccc3)CC2)nc2ccc(C(C)C)cc12 (configuration not stated),0.018,–
CC(C)n1cc(CN2CCCC2C(=O)Nc2ccccc2Oc2cccnc2)cn1 (configuration not stated),0.856,–
CN(C)Cc1ccc(C(=O)N2CCCC(CCc3cccc(F)c3)C2)o1 (configuration not stated),-0.003,–
Cn1cc(CNC(=O)C2CCCN(C3CCN(Cc4ccccc4)CC3)C2)cn1 (configuration not stated),0.688,–
Cc1cc(OCc2cc(C(=O)N(C)Cc3cnn(C)c3)no2)cc(C)c1Cl,–,0.024
Cc1cccc(C(=O)NCc2nc(-c3ccc(NC(=O)Cc4ccccc4)cc3)oc2C)c1,0.86,–
COc1ccccc1CCN1CCC(CN(C)C(=O)CCc2cccnc2)CC1,–,1
